{"source": "PubChem BioAssay AID1259284 (Sanger Institute, 2017)", "test": "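Kinase knock-downs that cut colorectal cancer cell growth alone or with targeted drugs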 (primary screen)", "cells": "SW48 human colorectal cancer cells", "reagent": "siRNA pool against human genes", "conditions": "anchor drug BYL719 at 1 µM, cetuximab at 5 µg/ml or trametinib at 10 nM, or DMSO vehicle alone", "detection": "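Viability scaled to non-targeting control pool, robust z-score from controls, and synergy scores for each drug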", "direction": "robust z-score, no drug: higher = more cells survive knock-down; viability, no drug: higher = more viable cells", "rule for the call": "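Called essential when the robust z-score of viability without drug falls below -3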", "meaning of the calls": "active = essential without drug; inactive = no change without drug", "note": "In all, the deposit lists 794 reagents; below is a part drawn at random. Over the whole deposit, 16 (2%) were called active. 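Calls concern knock-down without drug only; drug synergy was judged apart, with scores above 0.15 taken as synergy.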 Unmarked entries are inactive. Viability is capped at 1. Not all columns of the deposit are shown. Reagent sequences are not shown. Not given: the amount of reagent, the time to read-out."}
{"gene": "CKB", "robust z-score, no drug": 0.426, "viability, no drug (fraction of control)": 1}
{"gene": "RUNX1", "robust z-score, no drug": 0.426, "viability, no drug (fraction of control)": 1}
{"gene": "PRKG1", "robust z-score, no drug": 0.426, "viability, no drug (fraction of control)": 1}
{"gene": "TAOK3", "robust z-score, no drug": 0.426, "viability, no drug (fraction of control)": 1}
{"gene": "SMC1A", "robust z-score, no drug": 0.426, "viability, no drug (fraction of control)": 1}
{"gene": "CDKN1B", "robust z-score, no drug": 0.426, "viability, no drug (fraction of control)": 1}
{"gene": "XYLB", "robust z-score, no drug": -0.664, "viability, no drug (fraction of control)": 0.906}
{"gene": "CSNK1E", "robust z-score, no drug": -1.46, "viability, no drug (fraction of control)": 0.838}
{"gene": "TP53BP1", "robust z-score, no drug": 0.426, "viability, no drug (fraction of control)": 1}
{"gene": "MATK", "robust z-score, no drug": 0.426, "viability, no drug (fraction of control)": 1}
{"gene": "MAPK1", "robust z-score, no drug": -2.87, "viability, no drug (fraction of control)": 0.717}
{"gene": "LTK", "robust z-score, no drug": 0.426, "viability, no drug (fraction of control)": 1}
{"gene": "MELK", "robust z-score, no drug": 0.426, "viability, no drug (fraction of control)": 1}
{"gene": "PKIB", "robust z-score, no drug": -0.115, "viability, no drug (fraction of control)": 0.954}
{"gene": "NTRK1", "robust z-score, no drug": 0.426, "viability, no drug (fraction of control)": 1}
{"gene": "KIT", "robust z-score, no drug": 0.426, "viability, no drug (fraction of control)": 1}
{"gene": "NTN4", "robust z-score, no drug": -1.72, "viability, no drug (fraction of control)": 0.816}
{"gene": "ATP23", "robust z-score, no drug": 0.426, "viability, no drug (fraction of control)": 1}
{"gene": "NRBP2", "robust z-score, no drug": -0.512, "viability, no drug (fraction of control)": 0.919}
{"gene": "CDADC1", "robust z-score, no drug": -0.652, "viability, no drug (fraction of control)": 0.908}
{"gene": "MED12", "robust z-score, no drug": -2.28, "viability, no drug (fraction of control)": 0.768}
{"gene": "FGFR2", "robust z-score, no drug": 0.426, "viability, no drug (fraction of control)": 1}
{"gene": "KMT2B", "robust z-score, no drug": 0.426, "viability, no drug (fraction of control)": 1}
{"gene": "TAB1", "robust z-score, no drug": 0.426, "viability, no drug (fraction of control)": 1}
{"gene": "DYRK1B", "robust z-score, no drug": 0.426, "viability, no drug (fraction of control)": 1}
{"gene": "PAK4", "robust z-score, no drug": 0.426, "viability, no drug (fraction of control)": 1}
{"gene": "EPHA7", "robust z-score, no drug": 0.426, "viability, no drug (fraction of control)": 1}
{"gene": "TPK1", "robust z-score, no drug": 0.426, "viability, no drug (fraction of control)": 1}
{"gene": "FLT1", "robust z-score, no drug": 0.414, "viability, no drug (fraction of control)": 0.999}
{"gene": "CDK7", "robust z-score, no drug": 0.426, "viability, no drug (fraction of control)": 1}
{"gene": "TGFBR2", "robust z-score, no drug": -0.467, "viability, no drug (fraction of control)": 0.923}
{"gene": "ACO1", "robust z-score, no drug": -2.79, "viability, no drug (fraction of control)": 0.724}
{"gene": "STK31", "robust z-score, no drug": -1.08, "viability, no drug (fraction of control)": 0.871}
{"gene": "MAPK6", "robust z-score, no drug": 0.426, "viability, no drug (fraction of control)": 1}
{"gene": "CDK4", "robust z-score, no drug": 0.25, "viability, no drug (fraction of control)": 0.985}
{"gene": "TPD52L3", "robust z-score, no drug": 0.426, "viability, no drug (fraction of control)": 1}

4 consecutive entries from above, for reference:
{"gene": "MATK", "robust z-score, no drug": 0.426, "viability, no drug (fraction of control)": 1}
{"gene": "MAPK1", "robust z-score, no drug": -2.87, "viability, no drug (fraction of control)": 0.717}
{"gene": "LTK", "robust z-score, no drug": 0.426, "viability, no drug (fraction of control)": 1}
{"gene": "MELK", "robust z-score, no drug": 0.426, "viability, no drug (fraction of control)": 1}
